# Measurements from PubChem BioAssay AID1347423 (Functional Genomics Laboratory (NCATS/FGL), 2020).
# The whole screen tested about 52,000 sequences, of which about 210 (0.4%) were called active.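 The calls were made as follows: active = gene whose silencing raises cell survival under the drug, median off-target-corrected z-score across its silencing RNAs 2 or more; inactive = the rest.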 The list shows a part of the results.
# Assay: Resistance to Poly (ADP-Ribose) Polymerase inhibitor: Gene Identification via Genome-wide siRNA Screen
# Settings: mouse BRCA2 R2336H ES cells, olaparib, CellTiter-Glo viability; active compounds read high
# Description: The role of Poly (ADP-Ribose) Polymerase (PARP) proteins in DNA repair has been elegantly utilized for the synthetic lethality-based treatment of BRCA-deficient tumors by PARP inhibitors. PARP inhibitors are now being used for treatment of BRCA-deficient breast and ovarian cancers. […] While several mechanisms of drug resistance have been identified, majority of these tumors develop drug resistance due to unknown causes. To identified novel regulators of chemo-resistance in BRCA2-mutated cells, we performed a genome wide siRNA library screen. We have found ES cells expressing a hypomorphic allele of BRCA2 to be hypersensitive to PAPP inhibitors (such as olaparib). We used ES cells expressing a mutant allele of BRCA2 that has a single amino acid substitution at position 2336 (arginine to histidine, R2336H). The screen was conducted using an Ambion (Thermo) Silencer Mouse Genome siRNA collection. The library targets 17,575 mouse genes with 3 siRNAs per gene. TET2 (E130014J05Rik) was identified as a top candidate.
# Transfections were performed in 384 well plates (Corning 3707). Plates were coated with 0.1% gelatin in H2O overnight at ambient temperature. Gelatin solution was aspirated (BioTek EL406) and siRNAs were printed using a Bravo VPrep liquid handler integrated within a BioCel automation platform (Agilent). Cell viability was measured using CellTiter Glo (Promega). For transfections, […] of serum free media containing Lipofectamine RNAiMax […] was added to wells containing siRNA (0.8pmol). Lipid and siRNA were allowed to complex for 45 min at ambient temperature before addition of 1000 cells in DMEM, 30% FBS to yield final transfection mixtures containing 20 nM siRNA in DMEM, 15% FBS. PARPi (olaparib, AZD2281) was added 48 h post-transfection (500 nM) and viability (CellTiter Glo, Promega) was assayed 72 h later on a PerkinElmer Envision 2104 Multilabel plate reader. Ambion Silencer Select Negative Control #2 was incorporated on all screening plates (16 wells) and the median negative control value on each plate was used for normalization. An siRNA targeting Trp53 was used as a positive control. This control yielded a median protective effect of ~1.9 fold versus negative control throughout the screen. The median absolute deviation (MAD) based z-score was calculated for each siRNA. Genes were then ranked by taking the median value for all siRNAs tested against a given gene. Scores were also adjusted for seed-based off-target effects to help deprioritize likely false positives.
row,Sequence,z-score
1,GCCGUGGUGUGGAUUUUUGTT against Cenpa,inactive: -0.38
2,GGCCUCAUGCAGGAACAUUTT against 2610028L19Rik,inactive: -1.88
3,GGAUAUGUUGGAGAAGGACTT against 2410018C20Rik,inactive: -1.57
4,GCUCCUGAGAGCUAUAGUUTT against Ddx39,inactive: -1.37
5,GCUGGAUGUGAAAAGAGCGTT against Fts,inactive: -1.16
6,CCGUGACGAGCUUGUGGUUTT against Ap3b2,inactive: -0.766
7,GGACAGUUCAAGAUGUUCCTT against Mthfr,inactive: -0.0614
8,CCAAGAAAGCAGGAUUAAGTT against Noxo1,inactive: 2.11
9,GGUAUUGUUUGGUGACAAATT against Lipl2,inactive: -0.0931
10,CGAAAGAAGGUGAGGGCUCTT against Ppp1r9a,inactive: -0.95
11,GGCUACCUACAGCACCAACTT against Mbc2,inactive: -0.798
12,GGAAUAUAAUGGUUACACATT against Trf,inactive: -0.824
13,GGCAUGUCAGUGAAAUUUUTT against V1rd22,inactive: 0.403
14,CCUGGGACCUAUAACUCCATT against MGC58608,inactive: -0.0145
15,GGAAGAAAAAAACUUCGUUTT against Gabrg3,inactive: -0.526
16,GGCGCACAAUCAAGAUCUUTT against Col4a4,inactive: -0.0689
17,GCUCAUUCAACCAAUAUGCTT against Tmprss7,inactive: 0.866
18,CCUGUCUGGACUUGUCUAATT against Ica1,inactive: -1.14
19,GCACCAAUGGAACAGUGAUTT against Chfr,inactive: -2.36
20,CCCAUAUCCUAGCUCUCUUTT against Olfr1230,inactive: 0.00557
21,CGCAGCUUCCACAUUAGUGTT against Rad23a,inactive: -0.345
22,CGACCUACAUCAUUAUGAATT against Chrm3,inactive: -0.349
23,GGCUUCAAGGAGACUGCUUTT against Wnt9a,inactive: -0.731
24,GGGUCCAGUAUCCAUCAAATT against Sf3a1,inactive: -2.8
25,GGCAAACAUGUGUUCCCUGTT against Prap1,inactive: 0.129
26,GGAACAAUUUGAUCCAGCATT against Mbnl2,inactive: -0.616

row,Sequence,z-score
1,GCUAGGCUUAUGAUCUUUUTT against Pfkp,inactive: 0.292
2,CCCUGACUACCUCUACCAUTT against 9830134C10Rik,inactive: 0.947
3,GCUUUCAAAUGAAUCUGGATT against D630023F18Rik,inactive: 0.299
4,GGACACUUGUCUUCACUUGTT against Fancc,inactive: -0.534
5,GGAGCCUCCAAGUUGUAAGTT against 1810023F06Rik,inactive: -0.539
6,GGAAAAAGAGGAUGAGUGCTT against 9230109N16,inactive: 0.823
7,CCCUCAGCUACAUUCUCCUTT against Olfr1313,inactive: 0.106
8,GGAUACAAUACACGGACGATT against Syt14,inactive: -0.943
9,GGACAUUCCUGAACAUAAUTT against Pcdha3,inactive: 0.466
10,CCCUGAAGUUUAUGCAACATT against Ttyh2,inactive: -0.188
11,GCCUAAUCAUUCCCAGCAUTT against Oog2,inactive: -0.349
12,GGUGAGAGGAAGGAAGAGATT against Pcsk7,inactive: -2.23
13,GCUGAUCCAACUGGAAUCUTT against D030051D21,inactive: 2.25
14,GGAGGUAAAUGAAAAAUCUTT against Nol5a,inactive: -0.00217
15,GGAUAUGCACUGUUUUCAATT against 2310041H06Rik,inactive: -0.288
16,GGACUUUUAUCACGAAGAGTT against E230016K23Rik,inactive: -1.19
17,GCACAACUUAUGACUGAAATT against 2610318K02Rik,inactive: -1.21
18,CCAACAGUACCUCAUUGCUTT against 5730536A07Rik,inactive: -2.42
19,CACUUAUGACCACGCUGAUTT against Olfr809,inactive: 0.511
20,CCCACGAAGCUAAGUGGAATT against Gm711,inactive: 1.21
21,GGGUACUGAGGCACUAAAGTT against 2410129H14Rik,inactive: 2.91
22,GGUGUGGUAUCUCUUGUAGTT against Tfdp1,inactive: -1.72
23,GGCAUAACUGGCUUUGAAGTT against 1200009C21Rik,inactive: -0.402
24,GGAGUACUUUGGAAUAGCATT against Frmd4a,inactive: -0.351
25,GCCAGUGAGGCUACUUUCATT against Myo18a,inactive: -0.423
26,GCACGGCGAAAAAAUCUUCTT against 3110023G01Rik,inactive: 0.469

row,Sequence,z-score
1,GCAAAAGAGGGAAUAAUUCTT against Ssb,inactive: 1.47
2,GCAGCUAGCGAUCUUUGGUTT against Thpo,inactive: 0.00639
3,GGAUAUUAGUGUGGAGACUTT against Spnb2,inactive: 0.595
4,GGAGGAUGAGAAAGAAGAGTT against Gja8,inactive: 0.759
5,CGUGACUCUGCUUUAACUCTT against Col27a1,inactive: 0.7
6,GUUUCCAUAUCCUUUAAGUTT against Gp49a,inactive: 0.954
7,GGAUACAUUGAGAAAGACUTT against A130072J07,inactive: -0.41
8,GCACCUUUGCUUCAGGUAGTT against Ttf2,inactive: 1.27
9,GCAUAUUCUUGCCUUUCUCTT against V1ri10,inactive: 0.614
10,CCCGCUAUUACGUUUUUCUTT against 2810484M10Rik,inactive: -0.417
11,GCCACUCACUAUGCUACUCTT against 0610039C21Rik,inactive: -1.23
12,GGAUGUGCAUCACUUCAACTT against Sgsh,inactive: -0.653
13,GGCUAAUAAGAAGUGAAGUTT against Kifc1,inactive: -1.66
14,GGUGUUAGAUUCUUUGUAATT against Cst6,inactive: 1.13
15,CCAGAGCUACCAAAGUCUATT against Ka35,inactive: -1.65
16,GGAGUUGUCUUCAAGAAAUTT against Rassf4,inactive: -1.12
17,GGAAACCUACCAAGAAACGTT against AI429612,inactive: -1.36
18,CACAGAACAUCAUCUCCCATT against Olfr887,inactive: -0.702
19,AAACUAGGGUCGAUUUCACTT against Hmgn3,inactive: -0.0683
20,CGUGGAAAUGUCUUAAAUCTT against Folh1,inactive: -0.323
21,GCAGGAGUAUUGCCAAGGATT against Csf1,inactive: -1.08
22,GGAGAUGAAUCACUAACCATT against Fgf5,inactive: -1.04
23,GCCUAAGGGAGACUCUUUGTT against Ngep,inactive: -1.38
24,GGAAUUCUACCGUUAUAUUTT against Trap1,inactive: -0.925
25,GGGAUCAGAGAUUUAGCUATT against V1ri4,inactive: -0.806
26,GGAUAUGCCUCCCUUGAUGTT against Gstt3,inactive: -0.88

row,Sequence,z-score
1,GGUUUUAUGUAUGAAACUCTT against 9030408N13Rik,inactive: -0.322
2,CCGAUUGAUAAAGUCACAUTT against Zfp406,inactive: -0.269
3,GGAACCUAGAGAAAAAGAATT against 0610009A07Rik,inactive: -1.33
4,GGUCCAGAAAAUGUUUAUATT against Slc35a4,inactive: 0.094
5,GGAAGCCACGGUCAUGUGUTT against Trim9,inactive: 0.202
6,GCCAAAACAUUUCAGAGCCTT against Hemk1,inactive: -0.0685
7,CCAAGAUUCUCCUGAAUUATT against Plod2,inactive: 0.771
8,GGCUUUGAUGCAACUUCUGTT against Slc18a1,inactive: 2.38
9,GGACACUUUACAGUGAUUGTT against 9530098N22Rik,inactive: 0.616
10,CCUCCAAUCAGAAAGGUCGTT against 1300018I05Rik,inactive: 0.606
11,CCUAAAAGUGCCUUACUAATT against E330017A01Rik,inactive: 0.714
12,GGCAAGGUAGAGAUCAUCATT against Ggtla1,inactive: 0.479
13,GCUGAUCAGCAUUAUUCACTT against Mbc2,inactive: -0.185
14,GCUGCUGUGGUUCUAGUUGTT against 1110033F04Rik,inactive: 1.68
15,UCUGACAUUGACUCUAGCCTT against 7420402K12Rik,inactive: -0.419
16,GGAUCUGCUUGCAUUUGCATT against Map3k8,inactive: 0.348
17,GGAUGUUGCGUCACCUACGTT against Zfp423,inactive: -2.22
18,GGCCAACACUGAUACCAAATT against Plau,inactive: 2.42
19,GGAGAUGGCUUCUCUCUCGTT against Rarg,active: 1.37
20,GGACCUGGAUUUGUGCUUUTT against 2010002N04Rik,inactive: 0.185
21,GGUGACAAUAAAAUGGUGATT against Fabp1,inactive: 0.496
22,GGAAAGAUUGUUUGAAGGCTT against Cask,inactive: -1.08
23,CCAGUUGUGCAAUCAACAATT against 1110006G06Rik,inactive: 0.345
24,GGAGAAGACAUGUUAAUAATT against Aox1,inactive: -0.486
25,GGUCUUCAGCAGUCAUCAGTT against Sprr2d,inactive: 0.0558
26,GGCUUCAGCCAGAGUUCAGTT against Zfp239,inactive: 0.365

# Quoted from the listing:
# Value of GGUUUUAUGUAUGAAACUCTT against 9030408N13Rik under z-score: inactive: -0.322
# Value of GGCAAGGUAGAGAUCAUCATT against Ggtla1 under z-score: inactive: 0.479
# Value of GGAAAGAUUGUUUGAAGGCTT against Cask under z-score: inactive: -1.08
# Value of CCAGUUGUGCAAUCAACAATT against 1110006G06Rik under z-score: inactive: 0.345

# At a glance, part of the list above.
row,Sequence,z-score
24,GGAGAAGACAUGUUAAUAATT against Aox1,inactive: -0.486
25,GGUCUUCAGCAGUCAUCAGTT against Sprr2d,inactive: 0.0558
26,GGCUUCAGCCAGAGUUCAGTT against Zfp239,inactive: 0.365
